Screen size: about 140,000 compounds; about 4,300 (3.1%) were called active. Inconclusive results, whose numbers are uncertain, are shown with a selection of clear calls.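 Rule for the calls: active = readout at or below -70, meaning at least 70% loss of cells showing the perinucleolar compartment, a nuclear body marking cancer cells; inconclusive = readout between -30 and a set limit; inactive = the rest.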
Test: High Content Assay for Compounds that inhibit the Assembly of the Perinucleolar Compartment;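 note: plate controls were DMSO wells for no effect and camptothecin positive control wells for full effect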
Conditions: PC3M PTB-GFP, PNC prevalence imaging, 16 h; at 10 µM; active compounds read low
How it was run: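 Compounds are pinned in duplicate onto adhered PC3M cells stably expressing GFP-tagged PTB and incubated 16 h at 37 C. Cells are then fixed, nuclei stained with Hoechst, and PNC-positive cells counted.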

| SMILES | activity change (PNC), negative = inhibition |
| --- | --- |
| CCC(=O)Nc1ccc(N2CCN(Cc3ccccc3)CC2)cc1 | inconclusive: -42.7% |
| CCC(=O)N1c2ccccc2NC2=C(C(=O)CCC2)C1c1ccc(N(C)C)cc1 (centres undefined) | inconclusive: -77.3% |
| CC(=O)CCC(=O)c1ccc2ccccc2c1 | inactive: 36.3% |
| CN(C)c1nc(C(=O)Nc2ccccc2)nc(N(C)C)n1 | inconclusive: -40.8% |
| O=C(CSc1ccccn1)Nc1ccccc1F | inactive: 25.3% |
| CCSC1=C(C#N)C(c2cccc(O)c2)CC(=O)N1 (centres undefined) | inactive: 0.58% |
| Cc1cccc(NC(=O)NCC(c2cccnc2)N2CCOCC2)c1 (centres undefined) | inactive: 47% |
| COCCn1c(=O)[nH]c(=O)c2cc(C(=O)c3cc(OC)ccc3O)cnc21 | inactive: -8.95% |
| Cc1ccc(SCCC(=O)N(C)C)cc1 | inconclusive: -37.6% |
| Cc1ccc(-n2[nH]c(C)c(/C=N/n3c(C)nc4ccccc4c3=O)c2=O)cc1 | inactive: -19% |
| Cc1oc(-c2cccs2)[n+]([O-])c1C | inconclusive: -31.3% |
| C/C(=N\NC(=O)COc1ccc(C(C)(C)C)cc1)c1ccc(OC(F)F)cc1 | inconclusive: -64.6% |
| Cc1ccc(OCCCC(=O)Nc2ccc(N3CCOCC3)cc2)cc1 | inconclusive: -36.4% |
| Cc1cccc(C(=O)N[C@H](C(=O)OCC(=O)NC2CCS(=O)(=O)C2)C(C)C)c1 (some centres undefined) | inconclusive: -52.5% |
| Cc1ccc(S(=O)(=O)N2CCN(C(=O)CN3CCCCC3)C2C(C)C)cc1 (centres undefined) | inconclusive: -36.7% |
| O=C(Nc1ccc(Cl)c([N+](=O)[O-])c1)C(NCCCO)c1ccccc1 (centres undefined) | inconclusive: -37.8% |
| O=C(/C=C/Nc1cccc(C(F)(F)F)c1)C(F)(F)F | inconclusive: -30.5% |
| N#CCCCn1c(-c2ccccc2)noc1=O | inactive: 21.4% |
| Cc1[nH]c2ccccc2c1C1(O)C(=O)N(Cc2ccc3c(c2)OCO3)c2ccccc21 (centres undefined) | inconclusive: -37% |
| CC1CCN(S(=O)(=O)c2cccc(C(=O)O)c2)CC1 | inactive: 28% |

| SMILES | activity change (PNC), negative = inhibition |
| --- | --- |
| O=C1CC(c2ccco2)CC(O)=C1C=NCCN1CCN(C(=O)Nc2ccc(Cl)cc2)CC1 (centres undefined) | active: -99.1% |
| Cc1cccc(-c2c3c(=O)n(C)c(=O)n(C)c3cn2C(C)(C)C)c1 | inconclusive: -32.6% |
| COc1ccnc(Oc2ccccc2)c1C#N | inconclusive: -39.8% |
| O=C(O/N=C/c1ccc2c(c1)OCO2)c1ccccc1Cl | inactive: 51.2% |
| Cc1cc(C)n(CC(=O)N2N=C(C(F)F)CC2(O)C(F)F)n1 (centres undefined) | inconclusive: -39.5% |
| CCOC(=O)CC(=O)CSc1ncc(C(=O)OCC)c(N)n1 | inconclusive: -38.9% |
| Brc1ccccc1OCCOc1cccc2cccnc12 | inconclusive: -62.3% |
| Cc1ccc(-c2nnc(-n3ncc(C#N)c3N)c3ccccc23)cc1C | inconclusive: -50.4% |
| Cc1nc(C)n(C(C)CC(=O)O)n1 (centres undefined) | inconclusive: -33.4% |
| COc1ccccc1CN(Cc1ccco1)S(=O)(=O)c1ccc(-n2cnnn2)c(OC)c1 | inactive: 2.31% |
| CCCC1=[N+](CC(=O)c2ccccc2)CCn2cccc21 | inconclusive: -61.8% |
| O=C(NC(Cc1ccccc1)C(=O)O)c1ccc(S(=O)(=O)N2CCCCC2)cc1 (centres undefined) | inactive: 1.59% |
| CN(C)c1nc(C(N)=O)nc(N2CCOCC2)n1 | inconclusive: -31.7% |
| COc1cc(/C=C(/NC(=O)c2ccccc2)C(=O)Nc2ccc(O)cc2)c([N+](=O)[O-])cc1OC | inactive: 1.47% |
| N#Cc1ccc(C(=O)Nc2cc(S(=O)(=O)N3CCCC3)ccc2OCC(F)(F)F)cc1 | inconclusive: -35% |
| C=CCn1c(-c2cccn(Cc3ccc(Cl)cc3Cl)c2=O)n[nH]c1=S | inactive: 48.3% |
| O=C(c1ccccc1)c1cc([N+](=O)[O-])ccc1N1CCCC1 | inconclusive: -43.9% |
| Cc1ccc(NC(=O)c2ccco2)c(NC(=O)CN2C(=O)c3ccccc3C2=O)c1 | inconclusive: -50.1% |
| O=C(NCc1cccs1)c1cc(-c2cccc(Cl)c2)on1 | active: -124% |
| COc1cc(CC(=O)OCC(=O)c2ccc3c(c2)OCCO3)cc(OC)c1OC | inconclusive: -78.6% |

3 compounds picked at random from the list so far, as already listed:

| SMILES | activity change (PNC), negative = inhibition |
| --- | --- |
| Brc1ccccc1OCCOc1cccc2cccnc12 | inconclusive: -62.3% |
| O=C(NCc1cccs1)c1cc(-c2cccc(Cl)c2)on1 | active: -124% |
| COc1cc(/C=C(/NC(=O)c2ccccc2)C(=O)Nc2ccc(O)cc2)c([N+](=O)[O-])cc1OC | inactive: 1.47% |

(next part)

| SMILES | activity change (PNC), negative = inhibition |
| --- | --- |
| Cc1cc(OCCN2CCCCCC2)ccc1[N+](=O)[O-] | inconclusive: -56% |
| COc1ccc(OC)c(C(c2nnnn2CC2CCCO2)N2CCN(C)CC2)c1 (centres undefined) | inactive: 33.2% |
| CCOc1cc(N2CCOCC2)c(OCC)cc1NC(=O)c1nc2nc(C)cc(C)n2n1 | inconclusive: -40.2% |
| Brc1ccc(NCc2nnc3n2CCCCC3)cc1 | inconclusive: -45.3% |
| CCC(CCC(=O)Nc1nncs1)C(=O)O (centres undefined) | inconclusive: -43.9% |
| COC(=O)c1cc(NC(=O)CSc2nnc(CN3CCOCC3)n2C)ccc1Cl | inconclusive: -74.8% |
| CC1Sc2n(c3ccccc3[n+]2C)N=C1c1ccccc1 (centres undefined) | inconclusive: -52% |
| CC(C)(C)N=C1NN=C(c2cc3ccccc3o2)CS1 | inactive: 0.298% |
| CN(CCO)c1ccc([N+](=O)[O-])cc1C(=O)O | inactive: 6.43% |
| O=C(NCc1ccccc1)c1ccc(C(=O)N(C2CCCCC2)C2CCCCC2)cc1 | inconclusive: -71.3% |
| Cc1cc(=O)[nH]c(S/C=C/c2ccccc2)n1 | inactive: -29.1% |
| C/C(=N\NC(=S)NCc1ccccc1)c1ccc2ccccc2c1 | active: -99.2% |
| Cc1ccc(NC(=O)CSc2nc3ccccc3c(=O)n2CCCC(=O)N2CCCC2)cc1 | inconclusive: -57% |
| CN(C(=O)COc1cccc(Br)c1)C1CCS(=O)(=O)C1 (centres undefined) | inactive: 15.2% |
| C=CCNc1nc(NCCO)nc(N2CCCC2)n1 | inconclusive: -54.5% |
| NC(=NCCc1ccccc1)NS(=O)(=O)c1ccccc1 | inconclusive: -30.1% |
| COc1ccc(-c2cc(CCCC(=O)NCCc3cc(OC)ccc3OC)no2)cc1 | inconclusive: -53.3% |
| COC(=O)c1cc(NC(=O)c2c(F)c(F)c(F)c(F)c2F)cc(C(=O)OC)c1 | inactive: -16.9% |
| CCn1c(SCc2c(F)cccc2Cl)nnc1-c1ccco1 | inconclusive: -49.7% |
